According to PubChem BioAssay AID588590 (National Center for Advancing Translational Sciences (NCATS), 2011):
Where “and” joins values, the source holds several entries; their conditions need not be identical. Equal values may be shown once. About 4,000 (1%) of roughly 390,000 compounds were called active. This list was built around the results that the source calls inconclusive (neither active nor inactive); the mix of calls is not that of the screen. Calls follow the shape of the dose curve; as a rule, active = well fitted inhibition curve with a large enough effect; inconclusive = small, poorly fitted or top-dose-only effect, or another doubt; inactive = no such curve, though single readings can be large or run the other way. Where the call is inconclusive, the potency comes from a doubtful curve fit.

The chains behind the UniProt entries cited, without tags or fusion partners. Where a name states a change or a piece, a line headed by the entry shows the natural chain unless it says otherwise.
UniProt Q9UNA4: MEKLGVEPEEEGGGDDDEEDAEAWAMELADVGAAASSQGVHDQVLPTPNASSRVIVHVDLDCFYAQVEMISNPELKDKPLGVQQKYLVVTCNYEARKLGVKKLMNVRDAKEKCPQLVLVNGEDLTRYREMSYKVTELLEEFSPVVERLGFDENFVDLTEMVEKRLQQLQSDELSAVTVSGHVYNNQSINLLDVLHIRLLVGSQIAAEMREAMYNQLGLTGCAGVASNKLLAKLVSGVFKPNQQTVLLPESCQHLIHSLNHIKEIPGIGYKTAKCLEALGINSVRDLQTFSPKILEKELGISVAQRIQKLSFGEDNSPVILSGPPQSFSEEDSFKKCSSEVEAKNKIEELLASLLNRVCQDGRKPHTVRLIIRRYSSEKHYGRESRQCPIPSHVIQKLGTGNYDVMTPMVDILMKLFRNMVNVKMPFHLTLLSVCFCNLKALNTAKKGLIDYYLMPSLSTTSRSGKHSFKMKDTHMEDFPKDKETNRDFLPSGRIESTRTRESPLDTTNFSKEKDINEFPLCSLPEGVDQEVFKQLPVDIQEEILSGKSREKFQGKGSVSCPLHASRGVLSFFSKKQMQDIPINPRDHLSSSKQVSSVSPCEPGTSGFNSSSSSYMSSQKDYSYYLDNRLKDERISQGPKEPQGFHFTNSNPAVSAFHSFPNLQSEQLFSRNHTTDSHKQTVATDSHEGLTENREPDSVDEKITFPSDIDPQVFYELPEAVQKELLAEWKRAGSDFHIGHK

Target: DNA polymerase iota (Homo sapiens) (UniProt Q9UNA4)
Assay: qHTS for Inhibitors of Polymerase Iota
Conditions: Pol iota fluorescent replication assay, 10 min; series mostly up to 115 µM
Outline: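 Fluorescent replication assay read twice, at 0 min and 10 min after adding 50 nM (final) substrate. Enzyme (10 nM) and compounds were first incubated 15 min at room temperature; enzyme-free buffer wells were negative controls.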
Potency is read from the fitted curve at half-maximal effect.

Row | SMILES | Potency
1 | CCCCn1c(SCC(=O)NCc2ccco2)nnc1-c1ccco1 | inactive
2 | CCOC(=O)c1cnc2oc3ccccc3n2c1=O | inconclusive: 20 µM [inhibitor, partial curve]
3 | Cc1ccc(NC(=O)Cn2c(=O)c3cccn3c3ccccc32)c(Cl)c1 | inconclusive: 39.8 µM [inhibitor, partial curve, poor fit]
4 | CCc1ccc(S(=O)(=O)N(C(=O)c2ccncc2)c2ccc(OC(=O)c3ccncc3)cc2)cc1 | inconclusive: 89.1 µM [inhibitor, partial curve]
5 | N#CCC(=O)N/N=C\c1ccccc1OC/C=C/c1ccccc1 | inconclusive: 89.1 µM [inhibitor, single point]
6 | Cc1ccc(S(=O)(=O)N2CCN(c3nc(-c4cncn4C)nc4ccccc34)CC2)cc1 | inactive
7 | COc1ccc(CC(=O)Nc2cc(-c3cn4cccnc4n3)ccc2OC)cc1 | inactive
8 | Cc1occc1-c1nnc(SCC(=O)NCCc2ccccc2)n1C(C)c1ccccc1 (configuration not stated) | inconclusive: 0.631 µM [inhibitor, full curve, poor fit]
9 | COc1ccc(C(=O)CC(=O)C(=O)Nc2cc([N+](=O)[O-])ccc2OC)cc1 | inconclusive: 12.6 µM [inhibitor, partial curve]
10 | COc1cccc(/C=C/C(=O)OCC(=O)NCc2ccc3c(c2)OCO3)c1 | inconclusive: 100 µM [inhibitor, single point]
11 | O=C(O)c1cc(NS(=O)(=O)c2ccc(N3CCCCC3)c([N+](=O)[O-])c2)cc(C(=O)O)c1 | inconclusive: 112 µM [inhibitor, single point]
12 | CCc1nc2ccccc2[nH]c1=O | inconclusive: 89.1 µM [inhibitor, single point]
13 | Cc1ccc(N=c2ssnc2Cl)cc1 | inconclusive: 35.5 µM [inhibitor, partial curve, poor fit]
14 | CCCNC1=C(N(C(C)=O)c2cccc(F)c2)C(=O)c2ccccc2C1=O | active: 79.4 µM
15 | CCOC(=O)C1CCN(C(=O)c2cc(C)n(C(C)(C)C)n2)CC1 | inconclusive: 100 µM [inhibitor, single point]
16 | CCOC(=O)c1ccc(NC(=O)C(=O)NCc2ccncc2)cc1 | inconclusive: 100 µM [inhibitor, partial curve, poor fit]
17 | CCc1ccc(NC(=O)CSc2nc(=O)n(Cc3ccncc3)c3c2CCC3)cc1 | inactive
18 | Cc1ccc(C)c(Nc2nn3c(=O)c4cc5c(cc4nc3s2)OCO5)c1 | inactive
19 | COc1cc2c(cc1NC(=O)Nc1cccc(C)c1)oc1ccccc12 | inconclusive: 35.5 µM [inhibitor, single point]
20 | Cc1c2c(=O)n(-c3nc4ccccc4s3)nc-2cc(O)n1Cc1ccccc1 | active: 35.5 µM
21 | CC(C)(C)/C(O)=C/c1nc2ccccc2oc1=O | inactive
22 | CCC1=C(c2ccc(C)cc2)S(=O)(=O)N=C1N1CCC(C(=O)NCCc2ccc(Cl)cc2)CC1 | inactive
23 | CC1(C2CC2)NC(=O)N(CC(=O)NCc2ccc(Cl)cc2Cl)C1=O (configuration not stated) | inactive

Row | SMILES | Potency
24 | O=c1c2ccccc2n2c(-c3ccccc3F)nnc2n1CCc1ccccc1 | inactive
25 | CC(C)c1ccc(NC(=O)c2ccc3c(O)c(S(=O)(=O)c4ccccc4)c(=O)[nH]c3c2)cc1 | inconclusive: 31.6 µM [inhibitor, single point]
26 | COC(=O)C1=C(C)N(CC2CC2)C(=O)N[C@H]1c1ccccc1 | inconclusive: 3.16 µM [inhibitor, full curve]
27 | C=CCn1c(COc2ccc(F)cc2)nnc1SCC(=O)NC(=O)NCc1ccco1 | active: 50.1 µM
28 | CCc1ccc(N2CSC3=C(C#N)C(c4cccs4)CC(=O)N3C2)cc1 (configuration not stated) | active: 11.2 µM
29 | CC(=O)Oc1cccc(N2C(=O)C3CC=C(Cl)CC3C2=O)c1 (configuration not stated) | inconclusive: 8.91 µM [inhibitor, partial curve]
30 | Cc1nc2c(O)c3c(c(O)c2nc1C)C1C=CC3CC1 | active: 14.1 µM
31 | Cn1cccc1C(=O)NC(=O)COC(=O)Cc1coc2ccc3ccccc3c12 | inconclusive: 11.2 µM [inhibitor, partial curve, poor fit]
32 | COc1ccccc1NC(=O)CSC1=Nc2ccccc2C2=NC(CC(=O)NCc3ccc4c(c3)OCO4)C(=O)N12 (configuration not stated) | inconclusive: 31.6 µM [inhibitor, single point]
33 | CSc1ccccc1NC(=O)CSc1n[nH]c(C)c1[N+](=O)[O-] | inconclusive: 79.4 µM [inhibitor, partial curve, poor fit]
34 | CCC(=O)N1c2ccc(S(=O)(=O)N3CCN(C)CC3)cc2CC1C (configuration not stated) | inconclusive: 22.4 µM [inhibitor, full curve, poor fit]
35 | CC(C)(C)n1nnnc1C(c1cccs1)N(Cc1cccnc1)Cc1ccco1 (configuration not stated) | inconclusive: 39.8 µM [inhibitor, single point]
36 | CCn1c(=O)c(C(=O)Nc2ccccc2)c(O)c2ccccc21 | inconclusive: 11.2 µM [inhibitor, partial curve, poor fit]
37 | COc1ccccc1CNc1ncnc2c1cnn2-c1ccc(C)cc1 | inactive
38 | O=C1NC(=S)/C(=C\c2ccc(-c3ccccc3Cl)o2)S1 | inconclusive: 44.7 µM [inhibitor, partial curve, poor fit]
39 | O=C1Nc2cc(C(=O)NCCCN3CCOCC3)ccc2S/C1=C/c1ccccc1F | inactive
40 | COc1ccc2c(c1)c1c(c(=O)n(-c3cccc(C)c3)c(=O)n1Cc1cccc(Cl)c1)n2C | inactive
41 | CC1(C)Cc2c(C#N)c(N)sc(=S)c2CS1 | inconclusive: 7.94 µM [inhibitor, full curve, poor fit]
42 | CC[C@@H]1Cc2cc(O)ccc2C2=C1c1ccc(O)cc1C[C@H]2CC | inconclusive: 28.2 µM [inhibitor, partial curve, poor fit]
43 | CCOC(=O)c1c(C)[nH]c(C)c1S(=O)(=O)N1c2ccccc2CC1C (configuration not stated) | inconclusive: 25.1 µM [inhibitor, partial curve, poor fit]
44 | C[C@@H]1CN(C(=O)c2nc3ccc(Cl)cn3c2CN2CCc3sccc3C2)C[C@H](C)O1 | inconclusive: 35.5 µM [inhibitor, partial curve, poor fit]
45 | N#Cc1ccccc1S(=O)(=O)N1CCN(C(=O)c2cn(-c3ccccc3)nc2-c2cccnc2)CC1 | inconclusive: 100 µM [inhibitor, single point]
46 | Cc1cc(-c2nnc3n2N=C(c2ccccc2)CS3)n[nH]1 | inconclusive: 31.6 µM [inhibitor, partial curve, poor fit]

Row | SMILES | Potency
47 | CCc1ccc(NS(=O)(=O)c2[nH]ncc2C(=O)OC)cc1 | active: 79.4 µM
48 | Cc1ccc2nc(NC(=O)CSc3nccn3Cc3ccc(F)cc3)sc2c1 | inactive
49 | Cc1cccc(C(=O)OCC(=O)NC(=O)Cc2ccccc2)c1O | inactive
50 | Cc1nc2ncccn2c1-c1csc(NCc2ccco2)n1 | inconclusive: 70.8 µM [inhibitor, partial curve, poor fit]
51 | CN(CC(=O)NCC(c1ccco1)N1CCCCC1)S(=O)(=O)c1ccc(Cl)cc1 (configuration not stated) | inconclusive: 89.1 µM [inhibitor, single point]
52 | O=C(/C=C/c1ccco1)c1ccccc1O | inactive
53 | Cc1cc(F)ccc1NC(=O)C1CCC(CNS(=O)(=O)c2ccc3c(c2)CCCC(=O)N3)CC1 (configuration not stated) | inactive
54 | CCCS(=O)(=O)N1CCC(C(=O)NCCOC)CC1 | inactive
55 | COC(=O)[C@@]1(Cc2ccccc2)[C@H]2C(=O)N(Cc3ccccc3)C(=O)[C@H]2[C@H]2CN=C(SCC(=O)c3ccccc3)N21 | inconclusive: 28.2 µM [inhibitor, single point]
56 | COc1ccc(OC)c(S(=O)(=O)NCC(c2cccs2)S(=O)(=O)c2ccc(F)cc2)c1 (configuration not stated) | inactive
57 | Cc1cc(C)n2cc(CSc3ncccc3C(=O)O)nc2n1 | inconclusive: 5.62 µM [inhibitor, partial curve, poor fit]
58 | Cc1ccc(S(=O)(=O)Oc2ccc(/C=C3\C(=N)N4N=C(S(C)(=O)=O)SC4=NC3=O)cc2)cc1 | active: 15.8 µM
59 | CCCCOc1ccc(-c2cc(C(F)(F)F)c(C#N)c(SCC(=O)O)n2)cc1 | inconclusive: 100 µM [inhibitor, partial curve, poor fit]
60 | COc1ccc2cc3[n+](cc2c1OC)CCc1cc2c(cc1-3)OCO2 | inconclusive: 39.8 µM [inhibitor, partial curve, poor fit] and inconclusive: 8.91 µM [inhibitor, full curve]
61 | COc1ccc(-c2cc(=O)c3ccccc3[nH]2)cc1 | inconclusive: 44.7 µM [inhibitor, partial curve]
62 | COc1cc(OC)c(NC(=O)CCNC(=O)Cn2cnc3ccccc3c2=O)cc1Cl | inconclusive: 31.6 µM [inhibitor, single point]
63 | COc1ccccc1NS(=O)(=O)c1cccc(-n2c(O)c(C=Nc3ccccc3C(=O)O)c3ccccc3c2=O)c1 | inconclusive: 15.8 µM [inhibitor, full curve, poor fit]
64 | COC(=O)C(=Cc1ccccc1[N+](=O)[O-])C(=O)OC | inconclusive: 22.4 µM [inhibitor, partial curve]
65 | NS(=O)(=O)c1ccc(CCNC(=O)CNCCc2ccccc2)cc1 | inconclusive: 89.1 µM [inhibitor, single point]
66 | CCc1ccc(-n2c(SCC(=O)N3CCC(C(=O)O)CC3)nnc2-c2ccncc2)cc1 | inactive
67 | COc1ccc(Br)cc1C(=O)N/N=C/c1ccc([N+](=O)[O-])cc1 | inconclusive: 79.4 µM [inhibitor, partial curve, poor fit]

Arranged by count of non-hydrogen atoms (rising): three of the compounds above.
Row | SMILES | Potency
34 | CCC(=O)N1c2ccc(S(=O)(=O)N3CCN(C)CC3)cc2CC1C (configuration not stated) | inconclusive: 22.4 µM [inhibitor, full curve, poor fit]
7 | COc1ccc(CC(=O)Nc2cc(-c3cn4cccnc4n3)ccc2OC)cc1 | inactive
32 | COc1ccccc1NC(=O)CSC1=Nc2ccccc2C2=NC(CC(=O)NCc3ccc4c(c3)OCO4)C(=O)N12 (configuration not stated) | inconclusive: 31.6 µM [inhibitor, single point]
